Source: article PMC10079970

Chains of the proteins cited; added tags and fusions are not shown. Residues count along the entry.
UniProt Q9UBS4, residues 23-358: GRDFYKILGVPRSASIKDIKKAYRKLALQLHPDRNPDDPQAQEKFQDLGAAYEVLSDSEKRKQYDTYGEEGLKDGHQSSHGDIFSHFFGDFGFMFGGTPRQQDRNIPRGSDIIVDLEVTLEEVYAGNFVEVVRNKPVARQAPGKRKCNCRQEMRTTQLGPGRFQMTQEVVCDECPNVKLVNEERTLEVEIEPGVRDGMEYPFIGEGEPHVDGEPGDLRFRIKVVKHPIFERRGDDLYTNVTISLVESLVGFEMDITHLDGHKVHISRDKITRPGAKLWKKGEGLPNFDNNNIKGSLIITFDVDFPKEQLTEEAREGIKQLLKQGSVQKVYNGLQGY
UniProt P27824, residues 21-592: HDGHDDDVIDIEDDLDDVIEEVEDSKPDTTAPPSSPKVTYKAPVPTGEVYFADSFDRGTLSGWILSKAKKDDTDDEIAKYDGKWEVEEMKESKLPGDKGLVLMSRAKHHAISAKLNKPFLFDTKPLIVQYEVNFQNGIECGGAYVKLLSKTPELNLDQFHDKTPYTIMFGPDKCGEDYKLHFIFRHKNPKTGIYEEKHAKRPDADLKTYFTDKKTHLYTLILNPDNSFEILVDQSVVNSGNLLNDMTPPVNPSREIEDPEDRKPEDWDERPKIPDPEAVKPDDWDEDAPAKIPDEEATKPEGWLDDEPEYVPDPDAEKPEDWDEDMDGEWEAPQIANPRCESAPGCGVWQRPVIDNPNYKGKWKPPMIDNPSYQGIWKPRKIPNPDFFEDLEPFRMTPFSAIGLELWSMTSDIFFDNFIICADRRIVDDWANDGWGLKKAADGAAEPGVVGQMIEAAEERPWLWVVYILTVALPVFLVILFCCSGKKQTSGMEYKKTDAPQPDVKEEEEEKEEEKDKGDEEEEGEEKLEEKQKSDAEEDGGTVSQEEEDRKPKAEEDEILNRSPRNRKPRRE

Target: T1, V5-FLAG-tagged wild-type β-glucocerebrosidase (GCase) (human) (UniProt P04062)
T1 sequence: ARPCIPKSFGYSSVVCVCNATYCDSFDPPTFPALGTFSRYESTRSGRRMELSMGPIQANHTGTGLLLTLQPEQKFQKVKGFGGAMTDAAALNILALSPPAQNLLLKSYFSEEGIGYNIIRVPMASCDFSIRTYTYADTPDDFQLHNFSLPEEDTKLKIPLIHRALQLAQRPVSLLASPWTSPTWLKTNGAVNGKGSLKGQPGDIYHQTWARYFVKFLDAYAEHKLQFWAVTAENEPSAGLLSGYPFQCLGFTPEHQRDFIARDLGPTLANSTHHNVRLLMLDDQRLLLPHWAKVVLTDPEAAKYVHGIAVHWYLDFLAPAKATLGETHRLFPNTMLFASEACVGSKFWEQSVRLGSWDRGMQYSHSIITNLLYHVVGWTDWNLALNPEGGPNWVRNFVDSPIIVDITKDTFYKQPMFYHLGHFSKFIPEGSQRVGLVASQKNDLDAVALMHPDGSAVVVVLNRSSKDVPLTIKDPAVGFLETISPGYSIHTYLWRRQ
Test: affinity purification with mass spectrometry; anti-FLAG M2 agarose IP of V5-FLAG-GCase from T-Rex HEK lysate (1x TBS pH 7.4, 0.5% NP40), 2 h at 4 °C, FLAG peptide elution, TMT labelling and LC-MS; empty-vector cells as control; interactors: ≥2 unique peptides, enriched 1.5-fold over control

Row | binding | Substance
1 | binds | calreticulin (from UniProt P27797 18-417)
2 | binds | DNAJB11 (from UniProt Q9UBS4 23-358)
3 | binds | calnexin (from UniProt P27824 21-592)

Results are given in words; binding and its absence hold for the method and conditions named. In cells and extracts the contact can be indirect. These calls come from enrichment with a bait or labelling near it, and not all partners need be listed. Where a sequence is shown, tags or fusion partners need not be part of it.
